Residue numbers refer to the chain shown, from its start. Names may count otherwise. No constants are given. Whether binding was seen depends on the method and setting. Binding seen in cells or lysates may run through a third protein. Binding calls can cover weak binding; strength is not graded here. Tags and fused reporters may be left off the sequences shown. Blank lines part the entries; values can stand above or below the binder they belong to.
Columns and labels:
[1] = target: ULP1d-C (C-terminal region of ULP1d), Venus-half fusion (A. thaliana); experiment: co-IP; N. benthamiana leaves co-expressing HA- and cMYC-tagged (Venus-half) constructs; total protein extracts precipitated with anti-HA magnetic beads (HA-trap, Chromotek); blot with anti-cMYC
[2] = target: ULP1d-C (C-terminal region of ULP1d), Venus-half fusion (A. thaliana); experiment: split reporter; BiFC with Venus halves (VENn/VENc) in N. benthamiana leaf epidermal cells co-infiltrated with A. tumefaciens GV3101; HC-Pro co-expressed; both orientations tested

binding [1]: binds | binding [2]: binds
B1: αKNL2-C (C-terminal region of Arabidopsis KINETOCHORE NULL2, aa 364–598), Venus-half fusion (domain or fragment, UniProt F4KCE9 364-598)
chain: NYSGTKVKSAENKRKIDASKLQSPTSNVAEHSKEGLNNAKSNDVEKDVCVAINNEVISPVKGFGKRLSGTDVERLTSKNATKESLTSVQRKGRVKVSKAFQDPLSKGKSKKSEKTLQSNSNVVEPMNHFRSEAEEAEENLSWEKIKRKIDFDVEVTPEKKVKQQKTNAASTDSLGQKRSRSGRVLVSSLEFWRNQIPVYDMDRNLIQVKDGSETNSAPSKGKGSDSRKRRNLKIK

binding [2]: no binding
B2: αKNL2-C^K474R/K511R, Venus-half fusion (domain or fragment, UniProt F4KCE9 364-598)
chain: B1 chain with K111R, K148R

binding [2]: no binding
B3: αKNL2-C^Mut-SUMO (SUMOylation-deficient αKNL2-C: K378R, K474R, K511R, SIMs 547–551 and 568–572 deleted), Venus-half fusion (domain or fragment, UniProt F4KCE9)
chain: NYSGTKVKSAENKRRIDASKLQSPTSNVAEHSKEGLNNAKSNDVEKDVCVAINNEVISPVKGFGKRLSGTDVERLTSKNATKESLTSVQRKGRVKVSKAFQDPLSKGKSKRSEKTLQSNSNVVEPMNHFRSEAEEAEENLSWEKIKRRIDFDVEVTPEKKVKQQKTNAASTDSLGQKRSRSGRLEFWRNQIPVYDMDRNDGSETNSAPSKGKGSDSRKRRNLKIK
